Results published in patent US20250241927A1, “MEDICAMENT COMPRISING A P2X4 RECEPTOR ANTAGONIST FOR PREVENTING OR TREATING NOCICEPTIVE PAIN AND/OR VISCERAL PAIN” (NIPPON CHEMIPHAR CO., LTD., priority 2021, published 2025).
For at least one compound, name, drawing or mass did not settle the structure.

Key:
Type in all cases: in vivo, rat
[1] = test system: visceral pain (visceral hypersensitivity) in rats induced by intrarectal injection of DNBS; assay: Acute administration test: abdominal withdrawal reflex (AWR) to colorectal distension in DNBS-treated rats; conditions: 1 mg/kg acutely administered to DNBS-treated animals
Experimental: (§1) Male Sprague-Dawley rats (Envigo, Varese, Italy) weighing approximately 300 g at the beginning of a test were used. The animals were housed in Centro Stabulazione Animali da Laboratorio (CeSAL, University of Florence) and used at least one week after their arrival. Four rats were raised per cage (size 26×41 cm). The animals were fed with standard laboratory diet and tap water ad libitum and kept at 23±1° C. with a 12-hour light/dark cycle (light at 7:00 in the morning). All animal manipulations were carried out according to the European Community Guidelines for Animal Care (DL116/92) and the application of European Communities Council Directive of Nov. 24, 1986 (86/609/EEC). […]
Compound A and Compound B were dissolved in water and orally administered 30 minutes before the beginning of a test, and an acute effect was evaluated.
(§2) Visceral sensitivity to colorectal distension (CRD) was evaluated by measurement of abdominal withdrawal reflex (AWR) in conscious animals using semiquantitative scores (Lucarini et al., Cells. 2020; 9 (8): E1772). […]
Visceral sensitivity was evaluated by measuring abdominal withdrawal reflex (AWR) to colorectal distension (0.5 to 3 mL).

[2] = test system: occludin expression in colonic mucosa; assay: Occludin expression in colonic tissue of DNBS-induced rats by western blotting; conditions: 1 mg/kg, not shown in the drawing
[3] = test system: colonic damage in rats induced by the intrarectal injection of DNBS; assay: Intervention test: macroscopic colonic damage score in DNBS-treated rats; conditions: intervention test: daily from Day 3 to Day 8
Experimental: (§3) Colitis was induced by intrarectal administration of 15 mg of 2,4-dinitrobenzenesulfonic acid (DNBS; Sigma-Aldrich S.r.l., Milano, Italia) in 0.25 ml of 50% ethanol via a polyethylene PE-60 catheter inserted approximately 8 cm into the anus, while the rat was under short-term anesthesia by isoflurane (2%). To control rats, 0.25 ml of a vehicle was administered.
(§4) In addition, in order to evaluate an effect of repeated administration of a P2X4 antagonist, two different tests (that is, prevention test and intervention test) were adopted. […]
(§5) The macroscopic criteria were as follows: • presence of adhesion between colon and another intraperitoneal organ (0-2: no adhesions: 0 points, adhesion with only one adjacent organ: 1 point, and adhesions with a plurality of adjacent organs: 2 points); • consistency of colon fecal matter (indirect marker of diarrhea; 0-2: formed stool: 0 points, loose stool: 1 point, and liquid stool: 2 points); • thickening of colonic wall (mm: 1 point was scored for 1 mm); and • presence and spread of hyperemia and macroscopic mucosal damage (0-5: none: 0 points, hyperemic: 1 point, ulcers without hyperemia or thickening of intestinal wall: 2 points, ulcer with inflammation at one site: 3 points, ulcers with inflammation at two or more sites: 4 points, and wide site of damage exceeding 1 cm along length of colon: 5 points). […]

[4] = test system: colonic damage in rats induced by the intrarectal injection of DNBS; assay: Prevention test: macroscopic colonic damage score in DNBS-treated rats; conditions: 1 mg/kg, effect relative to Compound A or Compound B
Experimental: as §3, §4, §5

[5] = test system: visceral pain (visceral hypersensitivity) in rats induced by intrarectal injection of DNBS; conditions: prevention test, 1 mg/kg; effect relative to Compound A or Compound B
Experimental: as §1, with “(86/609/EEC). The ethical policy of the University of Florence complies with the Guide for the Care and Use of Laboratory Animals of the US National Institutes of Health (NIH Publication No. 85-23, revised 1996, University of Florence assurance number: A5278-01). Formal approval to conduct the experiments described was obtained from the Animal Subjects Review Board of the University of Florence.” for “(86/609/EEC).”
as §2
Visceral sensitivity was evaluated by measuring AWR to colorectal distension (0.5 to 3 mL). […]

In the case of `C[C@@H]1C[C@H]2[C@@H]3CCC4=CC(=O)C=C[C@]4(C)[C@@]3(F)[C@@H](O)C[C@]2(C)[C@@]1(O)C(=O)CO` [dexamethasone, reference compound], the visceral pain [1] is reported as “did not affect”, the “occludin expression in inflamed tissues compared to the DNBS-induced rats” value [2] is reported as “increased” and the “colonic damage (macroscopic damage score)” value [3] is reported as “significant reduction”. For the same compound, the “colonic damage (macroscopic damage score)” value [4] was “comparable” and the “onset of visceral pain (visceral hypersensitivity)” value [5] was “comparable”.
